No constants are given. Whether binding was seen depends on the method and setting. Binding seen in cells or lysates may run through a third protein. Some results given as binding are weak or reduced against the parent protein; the word gives no strength.
Key:
[1] = target: Neuropilin 2 (mouse (endogenous in immortalised mouse lung microvascular ECs)) (UniProt O35375); test: co-IP
[2] = target: T1, p120-catenin (Ctnnd1) (mouse (endogenous in immortalised mouse lung microvascular ECs)) (UniProt P30999); test: co-IP
T1 sequence: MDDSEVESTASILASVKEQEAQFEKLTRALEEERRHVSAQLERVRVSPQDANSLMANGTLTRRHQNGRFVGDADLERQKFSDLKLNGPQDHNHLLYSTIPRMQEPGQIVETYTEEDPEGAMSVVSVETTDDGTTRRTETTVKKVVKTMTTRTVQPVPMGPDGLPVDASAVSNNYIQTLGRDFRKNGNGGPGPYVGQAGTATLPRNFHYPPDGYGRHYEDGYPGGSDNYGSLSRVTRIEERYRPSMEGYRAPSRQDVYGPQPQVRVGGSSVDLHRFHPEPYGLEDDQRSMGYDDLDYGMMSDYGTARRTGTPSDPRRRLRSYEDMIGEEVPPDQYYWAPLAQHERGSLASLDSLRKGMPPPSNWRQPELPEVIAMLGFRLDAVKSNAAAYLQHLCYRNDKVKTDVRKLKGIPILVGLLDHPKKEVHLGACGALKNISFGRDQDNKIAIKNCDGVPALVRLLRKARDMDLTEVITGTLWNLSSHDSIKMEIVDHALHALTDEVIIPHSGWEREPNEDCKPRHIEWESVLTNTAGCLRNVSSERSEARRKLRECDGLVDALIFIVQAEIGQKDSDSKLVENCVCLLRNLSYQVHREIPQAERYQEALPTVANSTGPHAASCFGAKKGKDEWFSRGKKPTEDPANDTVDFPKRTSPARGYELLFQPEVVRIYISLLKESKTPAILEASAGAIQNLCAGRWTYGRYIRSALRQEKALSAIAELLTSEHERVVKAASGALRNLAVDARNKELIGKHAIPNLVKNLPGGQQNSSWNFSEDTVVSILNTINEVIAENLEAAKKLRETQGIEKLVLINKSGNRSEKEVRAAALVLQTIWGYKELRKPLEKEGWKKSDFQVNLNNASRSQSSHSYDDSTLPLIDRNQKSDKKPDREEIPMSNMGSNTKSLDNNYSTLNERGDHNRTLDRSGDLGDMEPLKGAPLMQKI

Chains of the proteins cited; added tags and fusions are not shown. Residues count along the entry.
UniProt O35375, residues 21-931: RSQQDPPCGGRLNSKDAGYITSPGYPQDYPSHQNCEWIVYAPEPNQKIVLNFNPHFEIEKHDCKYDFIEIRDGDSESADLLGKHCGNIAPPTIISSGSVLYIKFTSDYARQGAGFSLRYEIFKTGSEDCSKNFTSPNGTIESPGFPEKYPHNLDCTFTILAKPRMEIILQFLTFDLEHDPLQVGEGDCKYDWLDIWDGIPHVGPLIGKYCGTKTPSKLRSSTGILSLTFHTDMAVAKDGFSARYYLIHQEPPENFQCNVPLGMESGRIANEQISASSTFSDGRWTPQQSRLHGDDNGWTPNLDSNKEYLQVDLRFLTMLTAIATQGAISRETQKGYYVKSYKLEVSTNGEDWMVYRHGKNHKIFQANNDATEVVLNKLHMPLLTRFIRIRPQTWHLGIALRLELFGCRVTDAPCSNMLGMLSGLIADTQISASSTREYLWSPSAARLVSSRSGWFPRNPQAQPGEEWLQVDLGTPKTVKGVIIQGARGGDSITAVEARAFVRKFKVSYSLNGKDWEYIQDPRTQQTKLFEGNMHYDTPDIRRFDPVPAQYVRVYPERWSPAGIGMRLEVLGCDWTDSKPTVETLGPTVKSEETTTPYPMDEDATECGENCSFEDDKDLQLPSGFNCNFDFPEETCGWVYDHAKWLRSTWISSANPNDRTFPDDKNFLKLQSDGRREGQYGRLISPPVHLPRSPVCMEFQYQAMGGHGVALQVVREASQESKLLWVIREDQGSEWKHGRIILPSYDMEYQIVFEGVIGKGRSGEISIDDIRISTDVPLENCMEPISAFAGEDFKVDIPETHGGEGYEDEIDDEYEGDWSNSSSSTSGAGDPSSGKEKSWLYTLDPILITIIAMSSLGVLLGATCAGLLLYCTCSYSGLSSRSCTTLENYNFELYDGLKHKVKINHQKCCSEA

B1: Vascular endothelial (VE)-cadherin (Cdh5) (protein, UniProt P55284 46-784)
chain: DWIWNQMHIDEEKNESLPHYVGKIKSNVNRQNAKYVLQGEFAGKIFGVDANTGNVLAYERLDREKVSEYFLTALIVDKNTNKNLEQPSSFTVKVHDINDNWPVFSHQVFNASVPEMSAIGTSVIRVTAVDADDPTVAGHATVLYQIVKGNEYFSIDNSGLIFTKIKNLDREKQAEYKIVVETQDALGLRGESGTATVMIRLEDINDNFPVFTQSTYTFSVPEDIRVGKPLGFLTVVDPDEPQNRMTKYSIMQGEYRDTFTIETDPKRNEGIIKPTKSLDYEVIQQYTFYIEATDPTIRYEYLSSTSGKNKAMVTINVLDVDEPPVFQRHFYHFKLPENQKKPLIGTVVAKDPDKAQRSIGYSIRKTSDRGQFFRITKQGNIYNEKELDRETYAWYNLTVEANELDSRGNPVGKESIVQVYIEVLDENDNPPEFAQPYEPKVCENAAQGKLVVQISATDKDVVPVNPKFKFALKNEDSNFTLINNHDNTANITVKYGQFNREHAKFHYLPVLISDNGVPSLTGTSTLTVGVCKCNEQGEFTFCEEMAAQAGVSIQALVAIFLCILTITVITLLIILRRRIRKQAHAHSKSALEIHEQLVTYDEEGGGEMDTTSYDVSVLNSVRGGSTKPLRSTMDARPAVYTQVQKPPRLAPGLHGGPREMATMIDVKKEEADNDGGGPPYDTLHIYGYEGAESIAESLSSLSTNSSDSDIDYDFLNDWGPRFKMLAELYGSDPQEELII
For B1, the binding [1] was “binds” and the binding [2] was “binds”.

From paper doi:10.1101/2025.03.09.642194
